Tests used:
[1] = Evaluation 1 of curability (coating layer with trifunctional acrylate, UV exposure, no hydrogen donor)
Protocol: (§1) Using a trifunctional acrylate (product name; M-305, manufactured by Toagosei Co., Ltd.) as polyfunctional monomers, the compounds 1 to 14, the comparative compounds 2 and 3 and a photoradical generator Irgacure 907 (product name; manufactured by Ciba Specialty Chemicals) were mixed with each polyfunctional monomer to prepare each THF solution of each photoradical generator.
(§2) The mixing was performed so that a ratio of the photoradical generator to the polyfunctional monomer is such that number of imide part of each of the compounds 1 to 14 and the comparative compounds 2 and 3 with respect to number of double bond of the polyfunctional monomer is 1/50 (number of imide part/number of polyfunctional monomer) or, in the case of Irgacure, number of the molecule with respect to number of double bond of the polyfunctional monomer is 1/50 (number of Irgacure 907/number of polyfunctional monomer).
(§3) Each solution was applied by spin coating to a glass substrate on which chromium was sputtered to obtain coating layers. Also, a layer without initiator component or comparative compounds and only containing trifunctional acrylate was formed as a blank.
(§4) A decrement of the peak at 810 cm^−1 was recorded with time by using an infrared spectrometer (product name: FTS6000; manufactured by BIO RAD) while exposing the above coating layer to ultraviolet rays, to confirm the degree of the disappearance of a double bond. The atmosphere around the sample during measurement was replaced with nitrogen. As the UV exposure apparatus, UV Spot Cure SP-III type (standard reflecting mirror type) manufactured by Ushio Inc. was used and as the UV lamp, USH-255BY (manufactured by Ushio Inc.) was used.

[2] = Evaluation 2 of curability (triethanolamine added as hydrogen donor)
Protocol: as §1, §2, §3, §4
In order to confirm whether or not the seven-membered ring imide structure-containing group was a hydrogen-drawing type radical generator, triethanolamine was added to THF solutions containing each of the compositions 1 to 14 used in the aforementioned Evaluation 1 of curability and trifunctional acrylate M305, coating layers were formed in the same manner as in the aforementioned Evaluation 1 of curability, and evaluated similarly. As comparative examples, each of the comparative compounds 1 and 3 was used.

Structure (SMILES): COCCn1c(=O)c2ccccc2c2ccccc2c1=O [Compound 1]
- Coloring in coating layer [1]: Transparent
- Odor during exposure [1]: No
- Coloring in coating layer [2]: Transparent
- Odor during exposure [2]: No

Structure (SMILES): CC(=O)OCCn1c(=O)c2ccccc2c2ccccc2c1=O [Compound 2]
- Coloring in coating layer [1]: Transparent
- Odor during exposure [1]: No
- Coloring in coating layer [2]: Transparent
- Odor during exposure [2]: No

Structure (SMILES): CC(=O)OCCOCCn1c(=O)c2ccccc2c2ccccc2c1=O [Compound 3]
- Coloring in coating layer [1]: Transparent
- Odor during exposure [1]: No
- Coloring in coating layer [2]: Transparent
- Odor during exposure [2]: No

Structure (SMILES): CC(=O)OCC(C(C)C)n1c(=O)c2ccccc2c2ccccc2c1=O (centres unmarked) [Compound 4]
- Coloring in coating layer [1]: Transparent
- Odor during exposure [1]: No
- Coloring in coating layer [2]: Transparent
- Odor during exposure [2]: No

Structure (SMILES): C=COCCCn1c(=O)c2ccccc2c2ccccc2c1=O [Compound 5]
- Coloring in coating layer [1]: Transparent
- Odor during exposure [1]: No
- Coloring in coating layer [2]: Transparent
- Odor during exposure [2]: No

Structure (SMILES): CC(=O)OCCOCCOCCn1c(=O)c2ccccc2c2ccccc2c1=O [Compound 6]
- Coloring in coating layer [1]: Transparent
- Odor during exposure [1]: No
- Coloring in coating layer [2]: Transparent
- Odor during exposure [2]: No

Structure (SMILES): C=CC(=O)OCCn1c(=O)c2ccccc2c2ccccc2c1=O [Compound 7]
- Coloring in coating layer [1]: Transparent
- Odor during exposure [1]: No
- Coloring in coating layer [2]: Transparent
- Odor during exposure [2]: No

Structure (SMILES): C=CC(=O)OCCOCCn1c(=O)c2ccccc2c2ccccc2c1=O [Compound 8]
- Coloring in coating layer [1]: Transparent
- Odor during exposure [1]: No
- Coloring in coating layer [2]: Transparent
- Odor during exposure [2]: No

Structure (SMILES): C=CC(=O)OCCOCCOCCn1c(=O)c2ccccc2c2ccccc2c1=O [Compound 9]
- Coloring in coating layer [1]: Transparent
- Odor during exposure [1]: No
- Coloring in coating layer [2]: Transparent
- Odor during exposure [2]: No

Structure (SMILES): O=c1c2ccccc2c2ccccc2c(=O)n1CCOCCn1c(=O)c2ccccc2c2ccccc2c1=O [Compound 10]
- Coloring in coating layer [1]: Transparent
- Odor during exposure [1]: No
- Coloring in coating layer [2]: Transparent
- Odor during exposure [2]: No

Structure (SMILES): O=c1c2ccccc2c2ccccc2c(=O)n1CCOCCOCCOCCn1c(=O)c2ccccc2c2ccccc2c1=O [Compound 11]
- Coloring in coating layer [1]: Transparent
- Odor during exposure [1]: No
- Coloring in coating layer [2]: Transparent
- Odor during exposure [2]: No

Structure (SMILES): O=c1c2ccccc2c2ccccc2c(=O)n1CCOCCOCCOCCOCCOCCn1c(=O)c2ccccc2c2ccccc2c1=O [Compound 12]
- Coloring in coating layer [1]: Transparent
- Odor during exposure [1]: No
- Coloring in coating layer [2]: Transparent
- Odor during exposure [2]: No

Structure (SMILES): CN(C)CCn1c(=O)c2ccccc2c2ccccc2c1=O [Compound 13]
- Coloring in coating layer [1]: Transparent
- Odor during exposure [1]: No
- Coloring in coating layer [2]: Transparent
- Odor during exposure [2]: No

Structure (SMILES): CC(=O)OCCN(CCn1c(=O)c2ccccc2c2ccccc2c1=O)C(C)=O [Compound 14]
- Coloring in coating layer [1]: Transparent
- Odor during exposure [1]: No
- Coloring in coating layer [2]: Transparent
- Odor during exposure [2]: No

Structure (SMILES): CSc1ccc(C(=O)C(C)(C)N2CCOCC2)cc1 [Irg907, reference compound]
- Coloring in coating layer [1]: Yellow
- Odor during exposure [1]: Yes
- Coloring in coating layer ([1]; listed as Irgacure 907): colored as yellow
- Odor during exposure ([1]; listed as Irgacure 907): odor was generated during exposure

Structure (SMILES): C=CC(=O)OCCN1C(=O)C2=C(CCCC2)C1=O [compound 2, reference compound]
- Coloring in coating layer [1]: Transparent
- Odor during exposure [1]: No
- Coloring in coating layer [2]: Transparent
- Odor during exposure [2]: No

Structure (SMILES): COCCN1C(=O)c2cccc3cccc(c23)C1=O [compound 3, reference compound]
- Coloring in coating layer [1]: Transparent
- Odor during exposure [1]: No
- Coloring in coating layer [2]: Transparent
- Odor during exposure [2]: No

Reference: patent US7528205B2, “Photo radical generator, photo sensitive resin composition and article” (Dai Nippon Printing Co., Ltd., priority 2003, dated 2009)
